Assay results as given in PMC10326026.
These are yes or no findings as the source states them, for the method shown. Binding seen in cells or lysates may run through a third protein. Some binding calls cover weakened binding; strength is not graded here. For some of these results: Sequences can lack the tags named with a protein. Blank lines part the entries; values can stand above or below the substance they belong to.

Sequences of proteins named here, by UniProt entry; tags and fusion partners are left off.
UniProt P51784: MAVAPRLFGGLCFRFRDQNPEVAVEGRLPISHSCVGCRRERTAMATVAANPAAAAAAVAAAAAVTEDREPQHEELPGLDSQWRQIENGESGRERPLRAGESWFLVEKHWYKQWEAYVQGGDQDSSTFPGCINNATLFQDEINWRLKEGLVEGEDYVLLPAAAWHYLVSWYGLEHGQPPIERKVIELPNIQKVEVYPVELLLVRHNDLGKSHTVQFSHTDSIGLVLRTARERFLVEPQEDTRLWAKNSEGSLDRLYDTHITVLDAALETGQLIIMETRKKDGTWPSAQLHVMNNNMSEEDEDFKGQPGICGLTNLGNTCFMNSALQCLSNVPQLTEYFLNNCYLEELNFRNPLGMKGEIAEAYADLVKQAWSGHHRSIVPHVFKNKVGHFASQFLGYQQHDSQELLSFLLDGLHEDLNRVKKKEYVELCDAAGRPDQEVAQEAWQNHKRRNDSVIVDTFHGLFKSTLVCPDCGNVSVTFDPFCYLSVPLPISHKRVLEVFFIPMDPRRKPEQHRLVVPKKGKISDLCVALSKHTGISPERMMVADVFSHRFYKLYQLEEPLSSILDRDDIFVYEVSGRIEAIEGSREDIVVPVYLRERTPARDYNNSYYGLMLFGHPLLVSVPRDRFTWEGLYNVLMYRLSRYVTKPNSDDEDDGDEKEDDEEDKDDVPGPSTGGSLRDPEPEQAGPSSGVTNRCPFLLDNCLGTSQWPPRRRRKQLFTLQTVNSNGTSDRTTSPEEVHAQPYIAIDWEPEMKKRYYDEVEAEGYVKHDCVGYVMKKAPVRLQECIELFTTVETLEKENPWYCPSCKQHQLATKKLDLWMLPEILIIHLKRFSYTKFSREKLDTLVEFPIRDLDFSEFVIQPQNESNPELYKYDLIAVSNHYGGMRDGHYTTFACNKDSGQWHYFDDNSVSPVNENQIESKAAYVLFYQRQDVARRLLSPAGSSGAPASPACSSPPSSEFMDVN

How the values were obtained:
[1] = molecular target: T1, GST-LSH (lymphoid-specific helicase) (human (cDNA from GES-1 cells)) (UniProt Q9NRZ9); test: pull-down; GST-LSH on Glutathione Sepharose 4B resins incubated with in vitro translated Flag-tagged USP11; 50 mM Tris-HCl pH 7.4, 150 mM NaCl, 0.2% Triton X-100, 10% glycerol, 1 mM DTT; 4 °C overnight; WB; only the target purified
T1 sequence: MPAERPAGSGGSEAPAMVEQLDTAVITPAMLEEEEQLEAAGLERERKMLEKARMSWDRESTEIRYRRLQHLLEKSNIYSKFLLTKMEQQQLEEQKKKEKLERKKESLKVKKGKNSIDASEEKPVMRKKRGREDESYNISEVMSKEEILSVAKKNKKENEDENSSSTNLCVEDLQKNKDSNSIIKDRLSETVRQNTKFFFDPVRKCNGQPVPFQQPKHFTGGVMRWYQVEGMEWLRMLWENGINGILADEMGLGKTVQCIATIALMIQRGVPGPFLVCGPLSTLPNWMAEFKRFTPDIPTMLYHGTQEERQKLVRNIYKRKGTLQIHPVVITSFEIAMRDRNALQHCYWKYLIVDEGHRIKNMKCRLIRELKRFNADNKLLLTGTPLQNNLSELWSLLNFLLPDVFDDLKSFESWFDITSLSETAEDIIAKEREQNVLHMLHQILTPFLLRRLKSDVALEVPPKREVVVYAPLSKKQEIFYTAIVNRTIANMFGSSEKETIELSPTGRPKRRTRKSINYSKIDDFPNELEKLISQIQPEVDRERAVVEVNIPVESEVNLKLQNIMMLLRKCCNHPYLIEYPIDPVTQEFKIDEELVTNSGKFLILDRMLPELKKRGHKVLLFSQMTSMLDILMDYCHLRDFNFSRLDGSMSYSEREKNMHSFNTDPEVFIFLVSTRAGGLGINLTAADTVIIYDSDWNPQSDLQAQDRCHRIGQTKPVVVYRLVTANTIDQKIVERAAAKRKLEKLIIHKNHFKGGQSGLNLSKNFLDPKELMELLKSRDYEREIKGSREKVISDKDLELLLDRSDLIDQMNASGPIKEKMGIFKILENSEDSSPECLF

[2] = molecular target: T2, Flag-LSH (lymphoid-specific helicase), expressed in HEK293T cells (human (cDNA from GES-1 cells)) (UniProt Q9NRZ9); test: co-IP; Flag-LSH and MYC-USP11 in HEK293T cells; MYC-IP and Flag-IP; IP lysis buffer 50 mM Tris-HCl pH 7.4, 150 mM NaCl, 1 mM EDTA, 0.3% NP-40; protein A/G agarose, 4 °C, 6 h; WB
T2 sequence: T1 sequence

[3] = molecular target: T3, lymphoid-specific helicase (LSH), endogenous in HCT116 cells (human (endogenous in HCT116)) (UniProt Q9NRZ9); test: co-IP; endogenous proteins in HCT116 cells; IP with LSH antibody after DMSO or erastin (20 µM) for 24 h, and IP with USP11 antibody after erastin (20 µM) for 0, 4, 8 and 12 h; WB
T3 sequence: T1 sequence

[4] = molecular target: T3, lymphoid-specific helicase (LSH), endogenous in HCT116 cells (human (endogenous in HCT116)); test: co-IP; endogenous proteins; cytoplasmic and nuclear extracts fractionated from HCT116 cells; IP with USP11 or LSH antibody; WB

binding [1]: binds
Substance: Flag-tagged USP11 (ubiquitin-specific protease 11), in vitro translated (from UniProt P51784 1-963) (enzyme)

binding [2]: binds
Substance: MYC-USP11 (ubiquitin-specific protease 11), expressed in HEK293T cells (from UniProt P51784 1-963) (enzyme)

binding [3]: binds
binding [4]: binds
Substance: ubiquitin-specific protease 11 (USP11), endogenous in HCT116 cells (from UniProt P51784 1-963) (enzyme)
